Measurements reported in PubChem BioAssay AID493246 (Drosophila RNAi Screening Center, 2011).

- Purpose: 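Genome-wide search for dsRNAs that reduce cell number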 (primary screen)
- System: Drosophila Kc and S2R+ cells
- Knock-down reagent: long dsRNA against Drosophila genes
- Read-out: 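Cell number per well after knock-down, printed as raw plate values; calls were based on per-plate z-scores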
- Direction: Kc cell number and S2R+ cell number: higher = more cells remaining
- Active means: 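Counted as a hit if cell number falls by a z-score of at least 3 within its plate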
The screen tested about 21,000 reagents; this is an unselected part of those that have a named target and a result. Over the whole deposit, 429 (2%) were called active. 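Values are raw and not normalised between plates; calls rest on per-plate z-scores that were not deposited.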 A number with no mark means an inactive call. Not given: the amount of reagent, the time to read-out.

The opening 2 entries, ahead of the listing:
predicted target | dsRNA | Kc cell number, rep 1 | Kc cell number, rep 2 | S2R+ cell number, rep 1 | S2R+ cell number, rep 2
CG3339 | DRSC13821 | 1.00e6 | 1.37e6 | 1.06e6 | 1.01e6
CG3339 | DRSC15479 | 1.65e6 | 1.68e6 | 1.08e6 | 1.19e6

The listing, from the start:
predicted target | dsRNA | Kc cell number, rep 1 | Kc cell number, rep 2 | S2R+ cell number, rep 1 | S2R+ cell number, rep 2
CG3339 | DRSC13821 | 1.00e6 | 1.37e6 | 1.06e6 | 1.01e6
CG3339 | DRSC15479 | 1.65e6 | 1.68e6 | 1.08e6 | 1.19e6
dj-1beta | DRSC14599 | 1.44e6 | 1.47e6 | 1.01e6 | 1.11e6
CG4951 | DRSC15682 | 6.14e5 | – | 8.29e5 | –
CG1246 | DRSC08275 | 1.68e6 | 1.58e6 | 1.11e6 | 1.42e6
CG42788 | DRSC15330 | 1.23e6 | 1.24e6 | 1.19e6 | 1.31e6
CG42788 | DRSC16139 | 1.30e6 | 1.43e6 | 1.15e6 | 1.38e6
CG42788 | DRSC16152 | 1.26e6 | 1.31e6 | 1.24e6 | 1.36e6
cact | DRSC03501 | 1.35e6 | 1.42e6 | 1.13e6 | 1.16e6
AGO1 | DRSC05912 | 1.42e6 | 1.44e6 | 6.86e5 | 7.85e5
CG11044 | DRSC06026 | 1.70e6 | 1.72e6 | 1.27e6 | 1.49e6
CG1840 | DRSC19806 | 5.57e5 | – | 9.23e5 | –
HP5 | DRSC19773 | 6.47e5 | – | 8.45e5 | –
Odc2 | DRSC07483 | 1.46e6 | 1.52e6 | 1.25e6 | 1.34e6
CG5645 | DRSC10532 | 1.48e6 | 1.50e6 | 1.27e6 | 1.19e6
awd | DRSC16906 | 1.45e6 | 1.44e6 | 9.86e5 | 1.14e6
CG8617 | DRSC07223 | 1.48e6 | 1.46e6 | 1.14e6 | 1.27e6
bdg | DRSC07136 | 1.41e6 | 1.42e6 | 1.12e6 | 1.07e6
CG30286 | DRSC04070 | 1.49e6 | 1.56e6 | 1.29e6 | 3.29e5
CG31515 | DRSC13610 | 1.39e6 | 1.61e6 | 1.06e6 | 1.09e6
Roc2 | DRSC07313 | 1.61e6 | 1.59e6 | 1.27e6 | 1.31e6
Lap1 | DRSC07454 | 1.52e6 | 1.55e6 | 1.04e6 | 1.23e6
CG1307 | DRSC12492 | 1.60e6 | 1.54e6 | 1.36e6 | 1.45e6
CG10417 | DRSC04846 | 1.50e6 | 1.52e6 | 1.05e6 | 1.12e6
Mmp1 | DRSC04493 | 1.74e6 | 1.79e6 | 1.27e6 | 1.42e6
Sp7 | DRSC15461 | 1.41e6 | 1.53e6 | 1.26e6 | 1.36e6
CG13299 | DRSC09973 | 1.25e6 | 1.18e6 | 1.12e6 | 1.20e6
cal1 | DRSC15725 | 1.47e6 | 1.62e6 | 1.09e6 | 1.17e6
CG6656 | DRSC16085 | 1.55e6 | 1.53e6 | 1.18e6 | 1.24e6
CG13085 | DRSC02189 | 1.45e6 | 1.61e6 | 1.33e6 | 3.46e5
inv | DRSC07633 | 1.83e6 | 1.77e6 | 1.15e6 | 1.40e6
CG1789 | DRSC18140 | 5.39e5 | – | 8.00e5 | –
su(Hw) | DRSC17074 | 1.45e6 | 1.52e6 | 1.19e6 | 1.26e6
CG5435 | DRSC02860 | 1.52e6 | 1.64e6 | 1.24e6 | 1.33e6
SCAP | DRSC04869 | 1.82e6 | 1.93e6 | 1.26e6 | 1.42e6
SCAP | DRSC04907 | 1.72e6 | 1.84e6 | 1.38e6 | 1.52e6
CG17217 | DRSC02592 | 1.59e6 | 1.62e6 | 1.24e6 | 1.37e6
raw | DRSC03599 | 1.37e6 (active) | 1.44e6 | 7.06e5 | 7.88e5
raw | DRSC03600 | 1.49e6 | 1.52e6 | 8.80e5 | 1.06e6
CG15753 (retired record) | DRSC19718 | 8.98e5 (active) | 9.00e5 | 5.09e5 | 6.32e5
